Paper PMC12428314
No constants are given. Whether binding was seen depends on the method and setting. In cells and extracts the contact can be indirect. Some results given as binding are weak or reduced against the parent protein; the word gives no strength.

Amino acid sequences for entries named in this document (tags omitted).
UniProt Q9Z2I2: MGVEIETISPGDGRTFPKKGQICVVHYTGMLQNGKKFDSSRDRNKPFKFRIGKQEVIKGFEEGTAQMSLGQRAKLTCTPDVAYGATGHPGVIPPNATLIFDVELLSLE

Biological target: FK506-binding protein 12.6 (FKBP12.6) (mouse (endogenous in left ventricular myocardium)) (UniProt Q9Z2I2)
Experiment: co-IP; 1.5 mg lysate of mouse left ventricular myocardial tissue (IP lysis buffer with protease inhibitor) incubated with anti-FKBP12.6 antibody and protein A/G magnetic beads overnight at 4 °C; immunoblotting

B1: Glomulin (GLMN) (protein, UniProt Q8BZM1 1-596)
chain: MAVEELQSIIKRCQILEEHDFKEEDFGLFQLAGQRCIEDGYINQLLEIIQDEKNKTIIKSMGWNLVGPVVRCLLRGREEDKREECFLIFDLLVKLCNPKELLLGLLELIEEPSGKQISQIILLLLQPLQTVIQKLPNNKAYSVGLALSTLWSQLSLLPVPHSEEQIQADDYGLCQCCKALIEFTKPFVEEVISDKENKENAKLKDELLKFCFKGLKCPLLTAQFLEQSEDVGNDPFRCFASEIIGFLSKIGHPVPQIILNHGRKKRTWDYLEFEEEEDKQLAESVASLTYLVFVQGIGIDQLPMVLSPSYLLQLNMEHIEVFLQRTEQSIYSKGLELLETSLLRLEDNSLCYQYLEIKSFLAVPQGLVKVMTLCPIETLRKKGLSMLQLFIDKLDSQGKYTLFRCLLNTSNHSGVEAFVIQNIKNQIDLSFKKTYNKWFAGAQLISLLDLVLSLPEGAETDLLQNSDRIMASLNLLRYLVIKDNEDDNQTGLWTELGKIENNFLKPLHIGLNMSKAHYEAEIKNSQQNNQVASMCKGVCSVTVGGEEIPSMPPEMQLKVLHSALFTFDLIESVLARVEELIEIKSKSTSEENVGIK
For B1, which binding is on record?
The binding was “binds”.
